The text below walks through data of article PMC8572004.

These are yes or no findings as the source states them, for the method shown. In cells and extracts the contact can be indirect. Some results given as binding are weak or reduced against the parent protein; the word gives no strength. Where a sequence is shown, tags or fusion partners need not be part of it.

In this assay the target is T1, GST-Rab11 (small GTPase on glutathione beads, loaded with GTPγS or GDP) (Drosophila) (UniProt O18335).
T1 sequence: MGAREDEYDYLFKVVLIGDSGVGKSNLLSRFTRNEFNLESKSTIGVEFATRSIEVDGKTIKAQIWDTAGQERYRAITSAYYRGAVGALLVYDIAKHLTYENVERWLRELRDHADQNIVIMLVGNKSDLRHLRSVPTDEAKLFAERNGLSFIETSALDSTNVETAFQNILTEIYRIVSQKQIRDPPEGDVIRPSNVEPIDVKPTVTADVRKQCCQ
Description: pull-down; GST-small GTPase (60 μg) on glutathione sepharose beads loaded with GTPγS; S2 cell lysate added in NL100 buffer (20 mM HEPES pH 7.5, 100 mM NaCl, 5 mM MgCl2, 0.1% Triton X-100, 0.1 mM GTPγS); 4°C, 1 h; only the target purified.

B1: Sec15 in S2 cell lysate (GST pull-down) (protein, UniProt Q9VDE6 1-766)
chain: MSKVTVQDIEAVDDYWGPTFRSILEGNNTKQIGDQLEQRIRSHDKEIERICNLYYQGFIDSIQELLQVRTQAQQLHNEVHSLDTSLRQISASLIQQGNDLVRARQIESNLASAIEALKSCLPALECYMKFTQQAKNKQYYQALRTLETLETEHLTRLKTHNYRFATQMQIQIPIIKENIRRSSASDFREFLENIRKFSPRIGELAITHTKQLQKRDINAIIAEHMQQMNGGEAGGAGAGGDDDGANVSAQDLIDFSPIYRCLHIYMVLGQREYFEKDYRQQRRDQAKLVLQPPPNMHDNLEAYKTYICAIVGFFVVEDHVKNTAGDVVTSSYLEDLWSSSLTKFVNEISMSSSSCTDPNILLRIKNLIMLSINTFKCYGYTVNILWELLHNMRDHYNEVLLQRWVHVFREILDKEQFLPMVVQNTEEYECIIERFPFHSEQLENAPFPKKFPFSRMVPEVYHQAKEFMYACMKFAEELTLSPNEVAAMVRKAANLLLTRSFSGCLSVVFRQPSITLTQLIQIIIDTQYLEKAGPFLDEFVCHMTNTERSVSQTPSAMFHVARQDAEKQVGLRICSKIDEFFELSAYDWLLVEPPGIASAFITDMISYLKSTFDSFAFKLPHIAQAACRRTFEHIAEKIYSIMYDEDVKQISTGALTQINLDLMQCEFFAASEPVPGLKEGELSKYFLRNRQLLDLLILEEWSTYFHDYGKQENRYHLVQPQSIIVILEKIREADKKPIFSLVRKNDKKKLLETVLKQLKHIADRQN
Take B1: the binding entry is on record as “binds”.
